Laboratory results reported in paper PMC11447256.
No constants are given. Whether binding was seen depends on the method and setting. In cells and extracts the contact can be indirect. Some results given as binding are weak or reduced against the parent protein; the word gives no strength.

Legend:
[1] = target: T1, apoptotic chromatin condensation inducer in the nucleus (human (endogenous in A549)) (UniProt Q9UKV3); assay: cross-linking; in situ XL-MS; A549 cells fixed with 4% formaldehyde (10 min, 25 °C), permeabilized with 0.1% Triton X-100, one 1 mM PhoX treatment (30 min, PBS pH 7.4, 25 °C); Fe-NTA enrichment, high-pH fractionation, LC-MS/MS, pLink 2, 5% FDR
T1 sequence: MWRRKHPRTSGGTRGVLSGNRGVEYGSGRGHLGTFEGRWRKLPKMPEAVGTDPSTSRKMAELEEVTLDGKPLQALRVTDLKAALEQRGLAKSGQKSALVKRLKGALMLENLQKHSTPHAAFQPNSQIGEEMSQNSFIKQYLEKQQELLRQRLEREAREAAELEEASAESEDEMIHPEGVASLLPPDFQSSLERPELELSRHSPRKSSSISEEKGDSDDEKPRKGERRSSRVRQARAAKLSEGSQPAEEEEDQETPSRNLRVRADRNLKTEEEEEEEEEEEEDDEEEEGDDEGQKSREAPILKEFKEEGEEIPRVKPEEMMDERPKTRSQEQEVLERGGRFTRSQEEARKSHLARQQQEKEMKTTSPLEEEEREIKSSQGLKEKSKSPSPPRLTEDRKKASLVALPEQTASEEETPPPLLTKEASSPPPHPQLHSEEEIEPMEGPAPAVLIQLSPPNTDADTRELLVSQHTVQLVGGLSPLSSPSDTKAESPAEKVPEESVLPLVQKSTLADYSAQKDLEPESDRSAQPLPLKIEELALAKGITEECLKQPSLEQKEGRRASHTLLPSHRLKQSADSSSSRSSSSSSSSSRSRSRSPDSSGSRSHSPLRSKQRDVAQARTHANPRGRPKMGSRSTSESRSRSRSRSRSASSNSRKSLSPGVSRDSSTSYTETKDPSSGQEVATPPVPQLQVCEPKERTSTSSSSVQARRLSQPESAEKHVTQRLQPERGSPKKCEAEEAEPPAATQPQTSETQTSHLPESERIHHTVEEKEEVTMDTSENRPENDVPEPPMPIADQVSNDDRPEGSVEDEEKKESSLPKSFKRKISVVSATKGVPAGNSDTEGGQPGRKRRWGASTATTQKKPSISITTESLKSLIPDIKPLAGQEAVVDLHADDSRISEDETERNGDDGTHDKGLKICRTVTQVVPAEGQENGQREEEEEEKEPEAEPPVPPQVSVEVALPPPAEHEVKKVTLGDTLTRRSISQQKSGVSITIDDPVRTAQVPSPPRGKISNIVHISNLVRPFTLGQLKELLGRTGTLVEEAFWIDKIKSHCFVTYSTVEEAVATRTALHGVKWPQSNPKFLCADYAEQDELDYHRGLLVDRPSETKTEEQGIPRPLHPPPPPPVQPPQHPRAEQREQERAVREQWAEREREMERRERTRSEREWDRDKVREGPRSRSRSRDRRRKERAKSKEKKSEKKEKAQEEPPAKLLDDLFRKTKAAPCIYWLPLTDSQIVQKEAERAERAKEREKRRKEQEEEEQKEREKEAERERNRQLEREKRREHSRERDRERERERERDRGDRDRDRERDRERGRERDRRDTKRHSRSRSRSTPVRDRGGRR

[2] = target: T1, apoptotic chromatin condensation inducer in the nucleus (human (endogenous in A549)); assay: cross-linking; in situ XL-MS; A549 cells fixed with 4% formaldehyde (10 min, 25 °C), permeabilized with 0.1% Triton X-100, three sequential 1 mM PhoX treatments (30 min each, PBS pH 7.4, 25 °C); Fe-NTA enrichment, high-pH fractionation, LC-MS/MS, pLink 2, 5% FDR

binding [1]: binds | binding [2]: binds
B1: apoptosis inhibitor 5 (protein, UniProt Q9BZZ5 1-524)
chain: MPTVEELYRNYGILADATEQVGQHKDAYQVILDGVKGGTKEKRLAAQFIPKFFKHFPELADSAINAQLDLCEDEDVSIRRQAIKELPQFATGENLPRVADILTQLLQTDDSAEFNLVNNALLSIFKMDAKGTLGGLFSQILQGEDIVRERAIKFLSTKLKTLPDEVLTKEVEELILTESKKVLEDVTGEEFVLFMKILSGLKSLQTVSGRQQLVELVAEQADLEQTFNPSDPDCVDRLLQCTRQAVPLFSKNVHSTRFVTYFCEQVLPNLGTLTTPVEGLDIQLEVLKLLAEMSSFCGDMEKLETNLRKLFDKLLEYMPLPPEEAENGENAGNEEPKLQFSYVECLLYSFHQLGRKLPDFLTAKLNAEKLKDFKIRLQYFARGLQVYIRQLRLALQGKTGEALKTEENKIKVVALKITNNINVLIKDLFHIPPSYKSTVTLSWKPVQKVEIGQKRASEDTTSGSPPKKSSAGPKRDARQIYNPPSGKYSSNLGNFNYEQRGAFRGSRGGRGWGTRGNRSRGRLY
